# Reference: US20220289816A1, “IMMUNOTHERAPY WITH B*07 RESTRICTED PEPTIDES AND COMBINATION OF PEPTIDES AGAINST CANCERS AND RELATED METHODS” (Immatics Biotechnologies GmbH, priority 2018, published 2022)
# What was measured:
# [1] = tested on: source genes of the peptides (mRNA); experiment: Expression profiling of genes encoding the peptides (RNAseq of tumor and normal tissue RNA); set-up: species or system human; settings: RNAseq; for Gene Expression in tumor samples: Highly over-expressed (++): tumor types in which the peptide's source gene is highly over-expressed compared to a panel of normal tissues; for Gene Expression in tumor samples: over-expressed (+): tumor types in which the peptide's source gene is over-expressed compared to a panel of normal tissues
# [2] = tested on: tumor tissue samples and normal tissue samples (HLA-B*07 positive); experiment: Identification and quantitation of tumor associated peptides presented on the cell surface (HLA immunoprecipitation, label-free LC-MS); set-up: species or system human; settings: Table 8b; cancer entities on which the peptide was found presented (abbreviations in table head)
Substance,Gene Expression in tumor samples: Highly over-expressed (++) [1],Gene Expression in tumor samples: over-expressed (+) [1],Peptide Presentation on cancer entities [2]
470: peptide found in GRM8 (gene looked up) (RPNGEVKSEL; listed as Homo sapiens) [compound 470],CRC,"RCC, SCLC",SCLC
478: peptide found in GRM8 (gene looked up) (APKFISPASQL; listed as Homo sapiens) [compound 478],CRC,"RCC, SCLC",SCLC
481: peptide found in ADAM12 (gene looked up) (SPARALLLALA; listed as Homo sapiens) [compound 481],"BRCA, HNSCC, OSCAR","CCC, CRC, GBC, GBM, GC, MEL, NHL, NSCLCadeno, NSCLCother, NSCLCsquam, OC, PACA, UBC, UEC",HNSCC
488: peptide found in BTLA (gene looked up) (LPLGGLPLLI; listed as Homo sapiens) [compound 488],CLL,NHL,CLL
497: peptide found in ROS1 (gene looked up) (YVVKPLHPF; listed as Homo sapiens) [compound 497],NSCLCadeno,"NSCLCother, NSCLCsquam",CRC

# For part of these data: For expression read-outs the peptide stands for its source gene, whose mRNA was measured; the gene is not named for every peptide.
